The record followed here is PMC8254283.

Sequences of proteins named here, by UniProt entry; tags and fusion partners are left off. A change or cut given only in a name is not applied to a line headed by its entry.
UniProt Q8TEK3: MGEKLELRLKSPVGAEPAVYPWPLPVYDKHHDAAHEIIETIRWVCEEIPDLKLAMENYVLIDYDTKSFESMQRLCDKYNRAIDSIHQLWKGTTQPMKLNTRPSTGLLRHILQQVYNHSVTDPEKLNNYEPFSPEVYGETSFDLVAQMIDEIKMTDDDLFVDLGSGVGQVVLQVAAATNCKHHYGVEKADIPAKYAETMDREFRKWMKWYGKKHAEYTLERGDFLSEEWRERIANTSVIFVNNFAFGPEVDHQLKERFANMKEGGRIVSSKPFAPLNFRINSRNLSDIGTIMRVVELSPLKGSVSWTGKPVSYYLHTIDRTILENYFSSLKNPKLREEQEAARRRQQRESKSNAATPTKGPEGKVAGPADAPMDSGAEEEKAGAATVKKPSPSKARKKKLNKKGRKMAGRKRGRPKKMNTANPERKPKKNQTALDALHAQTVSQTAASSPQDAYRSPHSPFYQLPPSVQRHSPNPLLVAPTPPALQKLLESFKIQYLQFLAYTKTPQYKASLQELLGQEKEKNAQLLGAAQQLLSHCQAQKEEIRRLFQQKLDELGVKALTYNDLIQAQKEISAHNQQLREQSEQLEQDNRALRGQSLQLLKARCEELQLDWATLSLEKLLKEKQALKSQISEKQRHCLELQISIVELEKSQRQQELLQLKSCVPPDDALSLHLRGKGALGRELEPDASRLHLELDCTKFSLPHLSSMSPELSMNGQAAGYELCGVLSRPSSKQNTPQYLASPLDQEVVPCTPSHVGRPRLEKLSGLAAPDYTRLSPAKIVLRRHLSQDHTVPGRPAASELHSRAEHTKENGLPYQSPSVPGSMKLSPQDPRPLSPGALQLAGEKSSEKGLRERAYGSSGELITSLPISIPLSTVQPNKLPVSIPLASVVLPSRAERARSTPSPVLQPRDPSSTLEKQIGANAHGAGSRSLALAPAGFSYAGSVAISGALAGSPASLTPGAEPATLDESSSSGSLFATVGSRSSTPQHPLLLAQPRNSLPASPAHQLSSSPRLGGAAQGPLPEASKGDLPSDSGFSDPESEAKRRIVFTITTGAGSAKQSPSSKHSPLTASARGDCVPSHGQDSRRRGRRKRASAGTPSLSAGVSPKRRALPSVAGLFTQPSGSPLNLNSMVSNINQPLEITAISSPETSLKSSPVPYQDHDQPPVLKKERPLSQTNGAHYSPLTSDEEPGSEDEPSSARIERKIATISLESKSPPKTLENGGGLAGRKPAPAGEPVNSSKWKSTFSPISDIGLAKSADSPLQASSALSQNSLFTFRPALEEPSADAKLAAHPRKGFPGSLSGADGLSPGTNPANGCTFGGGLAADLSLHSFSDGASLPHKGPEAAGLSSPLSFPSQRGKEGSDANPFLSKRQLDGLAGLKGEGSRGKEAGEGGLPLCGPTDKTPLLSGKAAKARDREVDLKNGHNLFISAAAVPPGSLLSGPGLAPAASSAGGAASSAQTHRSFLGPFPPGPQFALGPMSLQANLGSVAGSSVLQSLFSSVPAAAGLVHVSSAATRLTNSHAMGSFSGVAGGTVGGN
UniProt P12270: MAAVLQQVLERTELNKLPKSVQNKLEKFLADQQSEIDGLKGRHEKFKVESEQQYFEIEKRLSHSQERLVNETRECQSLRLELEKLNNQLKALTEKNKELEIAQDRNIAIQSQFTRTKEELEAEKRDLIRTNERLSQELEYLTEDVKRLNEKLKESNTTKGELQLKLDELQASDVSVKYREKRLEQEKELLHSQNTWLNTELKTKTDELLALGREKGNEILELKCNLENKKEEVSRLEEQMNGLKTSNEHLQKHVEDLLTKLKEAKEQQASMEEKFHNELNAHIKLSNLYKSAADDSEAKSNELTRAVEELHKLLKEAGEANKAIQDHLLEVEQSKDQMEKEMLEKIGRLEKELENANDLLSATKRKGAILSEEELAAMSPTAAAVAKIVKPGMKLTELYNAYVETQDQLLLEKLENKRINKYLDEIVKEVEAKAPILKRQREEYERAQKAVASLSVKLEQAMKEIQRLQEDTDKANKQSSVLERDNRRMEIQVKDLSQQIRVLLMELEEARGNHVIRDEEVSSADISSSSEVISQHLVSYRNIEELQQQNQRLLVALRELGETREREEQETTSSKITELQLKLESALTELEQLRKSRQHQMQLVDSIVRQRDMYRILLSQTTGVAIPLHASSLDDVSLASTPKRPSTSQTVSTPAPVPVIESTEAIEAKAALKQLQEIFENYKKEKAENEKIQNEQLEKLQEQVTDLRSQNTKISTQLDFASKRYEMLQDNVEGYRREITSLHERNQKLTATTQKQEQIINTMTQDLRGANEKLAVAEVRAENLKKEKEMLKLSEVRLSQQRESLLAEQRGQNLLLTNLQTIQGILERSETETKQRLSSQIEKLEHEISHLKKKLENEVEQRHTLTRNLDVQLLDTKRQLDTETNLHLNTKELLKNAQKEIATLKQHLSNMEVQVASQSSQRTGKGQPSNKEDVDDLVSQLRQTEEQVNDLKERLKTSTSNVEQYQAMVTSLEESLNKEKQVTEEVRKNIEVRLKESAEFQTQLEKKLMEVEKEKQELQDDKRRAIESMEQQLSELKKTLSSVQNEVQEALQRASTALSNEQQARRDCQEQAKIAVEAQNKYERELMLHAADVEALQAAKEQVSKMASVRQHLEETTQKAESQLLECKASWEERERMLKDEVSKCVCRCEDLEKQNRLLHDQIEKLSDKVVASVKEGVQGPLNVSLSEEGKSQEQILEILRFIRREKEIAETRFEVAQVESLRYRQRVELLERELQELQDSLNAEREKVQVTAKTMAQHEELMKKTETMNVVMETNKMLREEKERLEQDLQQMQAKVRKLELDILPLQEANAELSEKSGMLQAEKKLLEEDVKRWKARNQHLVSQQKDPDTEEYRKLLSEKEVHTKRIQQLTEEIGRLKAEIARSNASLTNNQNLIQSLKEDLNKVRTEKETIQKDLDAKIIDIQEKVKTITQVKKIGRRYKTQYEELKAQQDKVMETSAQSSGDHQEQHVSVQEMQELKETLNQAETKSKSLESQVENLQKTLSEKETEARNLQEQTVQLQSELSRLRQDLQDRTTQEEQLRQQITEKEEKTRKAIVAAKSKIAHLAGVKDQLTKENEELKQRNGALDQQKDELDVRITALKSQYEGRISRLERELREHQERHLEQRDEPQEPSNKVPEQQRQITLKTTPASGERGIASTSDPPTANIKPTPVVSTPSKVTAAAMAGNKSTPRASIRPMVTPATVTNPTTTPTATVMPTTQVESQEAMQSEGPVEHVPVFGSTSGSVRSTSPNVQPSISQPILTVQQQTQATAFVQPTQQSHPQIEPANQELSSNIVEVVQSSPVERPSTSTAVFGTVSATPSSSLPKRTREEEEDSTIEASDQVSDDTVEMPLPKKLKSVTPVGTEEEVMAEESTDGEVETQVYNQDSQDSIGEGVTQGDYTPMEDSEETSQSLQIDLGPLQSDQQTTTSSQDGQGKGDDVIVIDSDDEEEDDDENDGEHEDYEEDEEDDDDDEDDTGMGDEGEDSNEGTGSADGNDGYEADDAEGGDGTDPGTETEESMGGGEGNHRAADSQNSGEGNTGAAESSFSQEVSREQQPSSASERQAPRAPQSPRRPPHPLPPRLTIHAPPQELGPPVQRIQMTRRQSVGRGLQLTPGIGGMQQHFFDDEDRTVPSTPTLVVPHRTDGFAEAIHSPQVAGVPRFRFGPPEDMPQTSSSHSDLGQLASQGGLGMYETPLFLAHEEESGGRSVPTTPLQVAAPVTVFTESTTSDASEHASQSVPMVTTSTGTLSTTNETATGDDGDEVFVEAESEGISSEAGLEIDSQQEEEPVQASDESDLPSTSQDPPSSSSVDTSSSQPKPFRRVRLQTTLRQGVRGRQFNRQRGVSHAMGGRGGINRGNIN
UniProt Q14980: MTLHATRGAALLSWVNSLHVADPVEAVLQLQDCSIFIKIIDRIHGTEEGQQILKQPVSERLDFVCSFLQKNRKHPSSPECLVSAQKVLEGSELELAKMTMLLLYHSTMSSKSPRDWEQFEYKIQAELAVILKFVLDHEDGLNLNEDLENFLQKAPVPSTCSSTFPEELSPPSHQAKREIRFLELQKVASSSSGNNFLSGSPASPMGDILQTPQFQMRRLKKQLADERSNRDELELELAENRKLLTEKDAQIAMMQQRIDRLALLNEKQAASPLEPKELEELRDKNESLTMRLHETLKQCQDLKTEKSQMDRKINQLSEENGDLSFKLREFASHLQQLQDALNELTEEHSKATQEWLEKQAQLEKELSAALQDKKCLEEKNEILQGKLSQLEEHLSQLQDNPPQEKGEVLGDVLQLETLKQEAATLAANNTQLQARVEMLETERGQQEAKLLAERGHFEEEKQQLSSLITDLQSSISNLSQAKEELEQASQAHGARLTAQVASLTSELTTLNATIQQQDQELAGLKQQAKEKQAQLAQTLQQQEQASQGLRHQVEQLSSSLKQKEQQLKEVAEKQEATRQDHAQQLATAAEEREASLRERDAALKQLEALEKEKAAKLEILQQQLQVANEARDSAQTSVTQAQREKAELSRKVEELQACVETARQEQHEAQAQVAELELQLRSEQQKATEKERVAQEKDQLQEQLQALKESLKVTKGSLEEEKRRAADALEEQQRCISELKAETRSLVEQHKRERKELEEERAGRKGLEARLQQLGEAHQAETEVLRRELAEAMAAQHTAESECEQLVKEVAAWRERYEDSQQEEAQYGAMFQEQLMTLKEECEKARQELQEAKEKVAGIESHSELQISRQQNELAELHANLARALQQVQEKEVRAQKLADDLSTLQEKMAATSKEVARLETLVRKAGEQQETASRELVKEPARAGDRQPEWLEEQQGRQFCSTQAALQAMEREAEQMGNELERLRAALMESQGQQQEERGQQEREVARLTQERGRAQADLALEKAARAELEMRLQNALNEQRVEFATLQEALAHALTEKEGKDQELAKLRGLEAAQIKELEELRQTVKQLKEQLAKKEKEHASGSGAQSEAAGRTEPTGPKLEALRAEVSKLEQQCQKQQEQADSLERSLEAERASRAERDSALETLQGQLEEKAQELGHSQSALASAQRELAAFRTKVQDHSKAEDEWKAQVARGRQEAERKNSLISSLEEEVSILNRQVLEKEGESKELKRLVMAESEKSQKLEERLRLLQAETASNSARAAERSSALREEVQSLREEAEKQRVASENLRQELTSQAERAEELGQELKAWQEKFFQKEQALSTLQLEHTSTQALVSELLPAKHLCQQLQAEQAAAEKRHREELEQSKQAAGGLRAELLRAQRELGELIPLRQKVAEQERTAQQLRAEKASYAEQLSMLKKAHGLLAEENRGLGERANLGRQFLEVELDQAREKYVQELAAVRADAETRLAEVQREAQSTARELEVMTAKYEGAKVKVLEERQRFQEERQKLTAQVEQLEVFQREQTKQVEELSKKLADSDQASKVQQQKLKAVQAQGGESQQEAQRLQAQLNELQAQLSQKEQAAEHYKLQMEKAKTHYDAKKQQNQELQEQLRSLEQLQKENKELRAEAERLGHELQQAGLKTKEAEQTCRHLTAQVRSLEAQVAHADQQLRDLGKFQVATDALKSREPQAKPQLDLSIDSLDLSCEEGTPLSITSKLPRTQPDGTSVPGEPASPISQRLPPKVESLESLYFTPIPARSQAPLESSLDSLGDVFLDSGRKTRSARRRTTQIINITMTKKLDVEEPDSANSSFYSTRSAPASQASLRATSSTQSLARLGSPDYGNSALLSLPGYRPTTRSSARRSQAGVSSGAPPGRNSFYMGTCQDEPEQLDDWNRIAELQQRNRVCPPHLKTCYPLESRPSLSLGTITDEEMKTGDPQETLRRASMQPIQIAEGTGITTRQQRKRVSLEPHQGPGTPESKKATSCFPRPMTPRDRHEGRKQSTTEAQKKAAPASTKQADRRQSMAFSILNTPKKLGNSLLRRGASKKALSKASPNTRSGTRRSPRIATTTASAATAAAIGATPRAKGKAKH

The target of test [1] is BirA*-DOT1L fusion protein, wild type (UniProt Q8TEK3). Kind of test: proximity labelling; BioID: HEK-293T cells with lentiviral BirA*-DOT1L (WT or MUT), 50 μM D-biotin 24 h, nuclear fraction, streptavidin bead pull-down, on-bead trypsin digestion, LC-MS/MS; proteins of uninfected control cells subtracted; two technical replicates.
The target is the same in test [2]. The test is described as above. The source holds these as a separate data set.
Test [3] has as its target BirA*-DOT1L fusion protein, catalytically dead mutant (G163R/S164C/G165R) (UniProt Q8TEK3). The test is described as above.
In test [4] the target is BirA*-DOT1L fusion protein, wild type (UniProt Q8TEK3). Kind of test: proximity labelling; BioID with blot: cells expressing BioID-DOT1L and GFP, WT-AF10 or OM-LZΔ AF10, 50 μM D-biotin 24 h, streptavidin pull-down, immunoblot for AF10. A general note: Immunoblotting shows a protein as a band on a membrane.

Results are given in words; binding and its absence hold for the method and conditions named. Binding seen in cells or lysates may run through a third protein. These calls come from enrichment with a bait or labelling near it, and not all partners need be listed. For some of these results: No binding means not detected with the bait.

As for TPR (from UniProt P12270 1-2363), the binding result in test [1] was “binds”.

On to NUMA1 (from UniProt Q14980 1-2115), for which the binding result in test [1] is reported as “binds”.

As to DDX21 (from UniProt Q9NR30 1-783), the binding entry in test [1] is given as “binds”.

B1: AF17 (protein, UniProt P55198 1-1093)
chain: MKEMVGGCCVCSDERGWAENPLVYCDGHACSVAVHQACYGIVQVPTGPWFCRKCESQERAARVRCELCPHKDGALKRTDNGGWAHVVCALYIPEVQFANVLTMEPIVLQYVPHDRFNKTCYICEEQGRESKAASGACMTCNRHGCRQAFHVTCAQMAGLLCEEEVLEVDNVKYCGYCKYHFSKMKTSRHSSGGGGGGAGGGGGSMGGGGSGFISGRRSRSASPSTQQEKHPTHHERGQKKSRKDKERLKQKHKKRPESPPSILTPPVVPTADKVSSSASSSSHHEASTQETSESSRESKGKKSSSHSLSHKGKKLSSGKGVSSFTSASSSSSSSSSSSGGPFQPAVSSLQSSPDFSAFPKLEQPEEDKYSKPTAPAPSAPPSPSAPEPPKADLFEQKVVFSGFGPIMRFSTTTSSSGRARAPSPGDYKSPHVTGSGASAGTHKRMPALSATPVPADETPETGLKEKKHKASKRSRHGPGRPKGSRNKEGTGGPAAPSLPSAQLAGFTATAASPFSGGSLVSSGLGGLSSRTFGPSGSLPSLSLESPLLGAGIYTSNKDPISHSGGMLRAVCSTPLSSSLLGPPGTSALPRLSRSPFTSTLPSSSASISTTQVFSLAGSTFSLPSTHIFGTPMGAVNPLLSQAESSHTEPDLEDCSFRCRGTSPQESLSSMSPISSLPALFDQTASAPCGGGQLDPAAPGTTNMEQLLEKQGDGEAGVNIVEMLKALHALQKENQRLQEQILSLTAKKERLQILNVQLSVPFPALPAALPAANGPVPGPYGLPPQAGSSDSLSTSKSPPGKSSLGLDNSLSTSSEDPHSGCPSRSSSSLSFHSTPPPLPLLQQSPATLPLALPGAPAPLPPQPQNGLGRAPGAAGLGAMPMAEGLLGGLAGSGGLPLNGLLGGLNGAAAPNPASLSQAGGAPTLQLPGCLNSLTEQQRHLLQQQEQQLQQLQQLLASPQLTPEHQTVVYQMIQQIQQKRELQRLQMAGGSQLPMASLLAGSSTPLLSAGTPGLLPTASAPPLLPAGALVAPSLGNNTSLMAAAAAAAAVAAAGGPPVLTAQTNPFLSLSGAEGSGGGPKGGTADKGASANQEKG
As for B1, in test [2], the binding entry was “binds”.

B2: SIN3B (protein, UniProt O75182 1-1162)
chain: MAHAGGGSGGSGAGGPAGRGLSGARWGRSGSAGHEKLPVHVEDALTYLDQVKIRFGSDPATYNGFLEIMKEFKSQSIDTPGVIRRVSQLFHEHPDLIVGFNAFLPLGYRIDIPKNGKLNIQSPLTSQENSHNHGDGAEDFKQQVPYKEDKPQVPLESDSVEFNNAISYVNKIKTRFLDHPEIYRSFLEILHTYQKEQLNTRGRPFRGMSEEEVFTEVANLFRGQEDLLSEFGQFLPEAKRSLFTGNGPCEMHSVQKNEHDKTPEHSRKRSRPSLLRPVSAPAKKKMKLRGTKDLSIAAVGKYGTLQEFSFFDKVRRVLKSQEVYENFLRCIALFNQELVSGSELLQLVSPFLGKFPELFAQFKSFLGVKELSFAPPMSDRSGDGISREIDYASCKRIGSSYRALPKTYQQPKCSGRTAICKELDHWTLLQGSWTDDYCMSKFKNTCWIPGYSAGVLNDTWVSFPSWSEDSTFVSSKKTPYEEQLHRCEDERFELDVVLETNLATIRVLESVQKKLSRMAPEDQEKFRLDDSLGGTSEVIQRRAIYRIYGDKAPEIIESLKKNPVTAVPVVLKRLKAKEEEWREAQQGFNKIWREQYEKAYLKSLDHQAVNFKQNDTKALRSKSLLNEIESVYDEHQEQHSEGRSAPSSEPHLIFVYEDRQILEDAAALISYYVKRQPAIQKEDQGTIHQLLHQFVPSLFFSQQLDLGASEESADEDRDSPQGQTTDPSERKKPAPGPHSSPPEEKGAFGDAPATEQPPLPPPAPHKPLDDVYSLFFANNNWYFFLRLHQTLCSRLLKIYRQAQKQLLEYRTEKEREKLLCEGRREKGSDPAMELRLKQPSEVELEEYYPAFLDMVRSLLEGSIDPTQYEDTLREMFTIHAYVGFTMDKLVQNIARQLHHLVSDDVCLKVVELYLNEKKRGAAGGNLSSRCVRAARETSYQWKAERCMADENCFKVMFLQRKGQVIMTIELLDTEEAQTEDPVEVQHLARYVEQYVGTEGASSSPTEGFLLKPVFLQRNLKKFRRRWQSEQARALRGEARSSWKRLVGVESACDVDCRFKLSTHKMVFIVNSEDYMYRRGTLCRAKQVQPLVLLRHHQHFEEWHSRWLEDNVTVEAASLVQDWLMGEEDEDMVPCKTLCETVHVHGLPVTRYRVQYSRRPASP
Take B2: the binding entry in test [2] is on record as “binds”; in test [3], “no binding”.

B3: NONO (protein, UniProt Q15233 1-471)
chain: MQSNKTFNLEKQNHTPRKHHQHHHQQQHHQQQQQQPPPPPIPANGQQASSQNEGLTIDLKNFRKPGEKTFTQRSRLFVGNLPPDITEEEMRKLFEKYGKAGEVFIHKDKGFGFIRLETRTLAEIAKVELDNMPLRGKQLRVRFACHSASLTVRNLPQYVSNELLEEAFSVFGQVERAVVIVDDRGRPSGKGIVEFSGKPAARKALDRCSEGSFLLTTFPRPVTVEPMDQLDDEEGLPEKLVIKNQQFHKEREQPPRFAQPGSFEYEYAMRWKALIEMEKQQQDQVDRNIKEAREKLEMEMEAARHEHQVMLMRQDLMRRQEELRRMEELHNQEVQKRKQLELRQEEERRRREEEMRRQQEEMMRRQQEGFKGTFPDAREQEIRMGQMAMGGAMGINNRGAMPPAPVPAGTPAPPGPATMMPDGTLGLTPPTTERFGQAATMEGIGAIGGTPPAFNRAAPGAEFAPNKRRRY
As to B3, the binding entry in test [2] is on record as “binds”.

B4: AF10 (MLLT10), endogenous (protein, UniProt P55197 1-1068)
chain: MVSSDRPVSLEDEVSHSMKEMIGGCCVCSDERGWAENPLVYCDGHGCSVAVHQACYGIVQVPTGPWFCRKCESQERAARVRCELCPHKDGALKRTDNGGWAHVVCALYIPEVQFANVSTMEPIVLQSVPHDRYNKTCYICDEQGRESKAATGACMTCNKHGCRQAFHVTCAQFAGLLCEEEGNGADNVQYCGYCKYHFSKLKKSKRGSNRSYDQSLSDSSSHSQDKHHEKEKKKYKEKDKHKQKHKKQPEPSPALVPSLTVTTEKTYTSTSNNSISGSLKRLEDTTARFTNANFQEVSAHTSSGKDVSETRGSEGKGKKSSAHSSGQRGRKPGGGRNPGTTVSAASPFPQGSFSGTPGSVKSSSGSSVQSPQDFLSFTDSDLRNDSYSHSQQSSATKDVHKGESGSQEGGVNSFSTLIGLPSTSAVTSQPKSFENSPGDLGNSSLPTAGYKRAQTSGIEEETVKEKKRKGNKQSKHGPGRPKGNKNQENVSHLSVSSASPTSSVASAAGSITSSSLQKSPTLLRNGSLQSLSVGSSPVGSEISMQYRHDGACPTTTFSELLNAIHNGIYNSNDVAVSFPNVVSGSGSSTPVSSSHLPQQSSGHLQQVGALSPSAVSSAAPAVATTQANTLSGSSLSQAPSHMYGNRSNSSMAALIAQSENNQTDQDLGDNSRNLVGRGSSPRGSLSPRSPVSSLQIRYDQPGNSSLENLPPVAASIEQLLERQWSEGQQFLLEQGTPSDILGMLKSLHQLQVENRRLEEQIKNLTAKKERLQLLNAQLSVPFPTITANPSPSHQIHTFSAQTAPTTDSLNSSKSPHIGNSFLPDNSLPVLNQDLTSSGQSTSSSSALSTPPPAGQSPAQQGSGVSGVQQVNGVTVGALASGMQPVTSTIPAVSAVGGIIGALPGNQLAINGIVGALNGVMQTPVTMSQNPTPLTHTTVPPNATHPMPATLTNSASGLGLLSDQQRQILIHQQQFQQLLNSQQLTPEQHQAFLYQLMQHHHQQHHQPELQQLQIPGPTQIPINNLLAGTQAPPLHTATTNPFLTIHGDNASQKVARLSDKTGPVAQEKS
Consider B4, for which the binding entry in test [2] is listed as “binds”; in test [3], “no binding”.

B5: Wild-type AF10, expressed from cDNA (protein, UniProt P55197 1-1068)
chain: MVSSDRPVSLEDEVSHSMKEMIGGCCVCSDERGWAENPLVYCDGHGCSVAVHQACYGIVQVPTGPWFCRKCESQERAARVRCELCPHKDGALKRTDNGGWAHVVCALYIPEVQFANVSTMEPIVLQSVPHDRYNKTCYICDEQGRESKAATGACMTCNKHGCRQAFHVTCAQFAGLLCEEEGNGADNVQYCGYCKYHFSKLKKSKRGSNRSYDQSLSDSSSHSQDKHHEKEKKKYKEKDKHKQKHKKQPEPSPALVPSLTVTTEKTYTSTSNNSISGSLKRLEDTTARFTNANFQEVSAHTSSGKDVSETRGSEGKGKKSSAHSSGQRGRKPGGGRNPGTTVSAASPFPQGSFSGTPGSVKSSSGSSVQSPQDFLSFTDSDLRNDSYSHSQQSSATKDVHKGESGSQEGGVNSFSTLIGLPSTSAVTSQPKSFENSPGDLGNSSLPTAGYKRAQTSGIEEETVKEKKRKGNKQSKHGPGRPKGNKNQENVSHLSVSSASPTSSVASAAGSITSSSLQKSPTLLRNGSLQSLSVGSSPVGSEISMQYRHDGACPTTTFSELLNAIHNGIYNSNDVAVSFPNVVSGSGSSTPVSSSHLPQQSSGHLQQVGALSPSAVSSAAPAVATTQANTLSGSSLSQAPSHMYGNRSNSSMAALIAQSENNQTDQDLGDNSRNLVGRGSSPRGSLSPRSPVSSLQIRYDQPGNSSLENLPPVAASIEQLLERQWSEGQQFLLEQGTPSDILGMLKSLHQLQVENRRLEEQIKNLTAKKERLQLLNAQLSVPFPTITANPSPSHQIHTFSAQTAPTTDSLNSSKSPHIGNSFLPDNSLPVLNQDLTSSGQSTSSSSALSTPPPAGQSPAQQGSGVSGVQQVNGVTVGALASGMQPVTSTIPAVSAVGGIIGALPGNQLAINGIVGALNGVMQTPVTMSQNPTPLTHTTVPPNATHPMPATLTNSASGLGLLSDQQRQILIHQQQFQQLLNSQQLTPEQHQAFLYQLMQHHHQQHHQPELQQLQIPGPTQIPINNLLAGTQAPPLHTATTNPFLTIHGDNASQKVARLSDKTGPVAQEKS
For the molecule B5, the binding entry in test [4] is recorded as “binds”.
